Test results reported in patent US8734788B2, “Composition and method for treatment of reperfusion injury and tissue damage” (OPSONA Therapeutics Ltd, priority 2007, dated 2014).

System: myocardial ischemia/reperfusion (I/R) injury in C57BL6 mice
Experiment: Infarct size after myocardial ischemia/reperfusion in mice (Evans blue/TTC staining)
Type: in vivo
Conditions: 30 min ischemia/24 h reperfusion, n=10
Protocol: Male C57BL6 mice (8-12 weeks old, 25-30 grams of weight) underwent 30 minutes of ischemia followed by 24 hours of reperfusion.
Experimental compounds were administered 5 minutes prior to reperfusion via the tail vein. […] OPN-301 (OPN301) is a murine IgG1 anti-TLR2 antibody (mouse Toll-like Receptor 2 (TLR2) antibody, clone T2.5, HyCult Biotechnology b.v., Cell Sciences, Canton, USA: catalogue number 1054).
Mice were anesthetized with a mixture of […]™ (N-(1-phenethyl-4-piperidyl)-N-phenyl-propanamide) 0.05 mg/kg, DORMICUM™ (Midazolum, 8-chloro-6-(2-fluorophenyl)-1-methyl-4H-imidazo[1,5-a][1,4]benzodiazepine) 5 mg/kg and DOMITOR™ (medetomidine hydrochlorine) 0.5 mg/kg (intraperitoneal injection). Atropine ((8-methyl-8-azabicyclo[3.2.1]oct-3-yl) 3-hydroxy-2-phenylpropanoate) 0.05 mg/kg was subcutaneously administered before coronary ligation. […]
Infarct Size (IS) is expressed as a percentage of the Area-At-Risk (AAR) and total Left Ventricle (LV). […]
To determine the AAR, the LAD was ligated once again (at the level marked by the suture left in place) and 4% Evans blue dye was injected via the thoracic aorta in a retrograde fashion. […] IS, MR and total LV area were measured using ImageJ software (version 1.34).
All data are expressed as Mean±SD. […]

Q: For “trans-1-(4-Hydroxycyclohexyl)-4-(fluorophenyl)-5-(2-methoxypyrimidin-4-yl) imidazole [SB239063]”, which “AAR_LV (Area At Risk as percentage of total Left Ventricle), Mean” value (Table 1, i.v. 5 min prior to reperfusion, mAb and IgG 10 mg/kg, SB239063 0.5 mg/kg) is on record?
A: The value was 40.3380%.

Q: And the “AAR/LV Mean” value (Table 3 (amended, saline control set))?
A: The value was 40.8740%.
